The test in a line: qHTS Assay for Lipid Storage Modulators in Drosophila S3 Cells.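 As to cell number change: cells counted by Cell Tracker Red CMTPX staining in the red channel.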 As to conditions: BODIPY lipid droplet fluorescence, 18-24 h; for cell number change: measured here: cell count max response, cells fed with added oleic acid. Put shortly: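 Drosophila S3 cells got compounds at several concentrations plus oleic acid (400 uM solution). Laser-scanning cytometry with 488 nm excitation read lipid droplets at 500-530 nm and cells at 575-640 nm. Percent activity was relative to 20 uM Triacsin C.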

Where [1] appears, read: measured here: lipid fluorescence (Fed channel) AC50, cells fed with added oleic acid.
Where [2] appears, read: measured here: cell number channel AC50, cells fed with added oleic acid.

The other results are listed elsewhere or left out. Shown are side measurements of this screen, not its main read-out; they come without a call. Most of these compounds were active or inconclusive in the main read-out, so they are no random draw. Words in brackets tell the shape of the fitted curve; partial curves, single points and poor fits give uncertain potencies.

With `CCOc1ccc2nc(N(CCCN(C)C)C(=O)c3ccc4c(c3)CCCC4)sc2c1`, the cell number change is -1.05%.

A word on the AC50: it is the concentration at which the activity in the assay is half-maximal. Read a high AC50 as activity only at high concentration. Take `O=C(OCc1ccc(Cl)c(Cl)c1)c1cccnc1Cl`: the cell number change was -7.14%. For the same molecule, the AC50 under setting [1] was 6.51 µM [falling, single point].

For the molecule `CSc1nc2c(c(=O)[nH]c(=O)n2C)n1Cc1ccccc1`, the cell number change was -18.6%. In addition, the AC50 under setting [1] is 29.1 µM [rising, single point].

For `Cc1ccc(S(=O)(=O)N2CCOCC2)cc1C(=O)OCC(=O)NCc1ccc2c(c1)OCO2`, the cell number change is -8.03%. The AC50 under setting [1] is 6.51 µM [rising, single point].

`CC1CCC(NC(=O)C2CCN(c3nc4ccccc4s3)CC2)CC1` (stereo not drawn): the cell number change was 10.3%. The AC50 under setting [1] was 0.116 µM [rising, single point].

In the case of `Cc1ccc(NC(=O)CSc2nc(-c3ccco3)nc3cc(=O)[nH]n23)c(Cl)c1`, the cell number change was -7.08%. For the same molecule, the half-maximal activity concentration (AC50) under setting [1] was 29.1 µM [falling, partial curve, poor fit].

Regarding `CCCCn1nc(C(=O)O)ccc1=O`, the cell number change is 10.2%. Besides, under setting [1], the AC50 is 0.0651 µM [falling, full curve, poor fit].

For `O=C(CN1CCN(Cc2ccccc2)CC1)Nc1nnc(C(F)(F)F)s1`, the cell number change is 13.2%. Moreover, the AC50 under setting [1] was 29.1 µM [rising, single point].

In the case of `O=C1CC(N2CCN(c3nc4ccccc4s3)CC2)C(=O)N1Cc1cccs1` (stereo not drawn), the cell number change was found to be 10.6%. For the same molecule, the AC50 under setting [1] was 3.26 µM [rising, partial curve].

In the case of `COc1ccccc1-c1cc(C(F)(F)F)nc(S(=O)(=O)CCCC(=O)O)n1`, the cell number change was -84.4%. The AC50 under setting [2] is 6.51 µM [rising, single point]. Also, the concentration at half-maximal activity (AC50) under setting [1] is 29.1 µM [falling, single point].

With `NS(=O)(=O)c1ccc(CCNC(=O)CNC(=O)Cc2ccccc2)cc1`, the cell number change came to 15.3%. Also, under setting [1], the AC50 was 3.26 µM [rising, full curve].

As to `COc1cccc(C2=CC(=O)C[C@H](c3ccc(F)cc3)C2)c1`, the cell number change is 3.84%.

With `COc1ccc(C/C(C)=N/NC(=O)c2ccncc2)cc1`, the cell number change came to 9.33%. Besides, the AC50 under setting [1] was 10.3 µM [falling, partial curve, poor fit].

Consider `O=C(Nc1ccc(S(=O)(=O)Nc2ccccc2)cc1)C1CC1`, for which the cell number change is -2.27%.

On to `Cc1cc(C)c(NC(=O)CSc2nnc(SCC(=O)Nc3c(C)cc(C)cc3C)n2N)c(C)c1`, for which the cell number change came out at 181%. Further, the AC50 under setting [2] was 18.4 µM [rising, partial curve]. Moreover, under setting [1], the AC50 is 6.51 µM [rising, single point].

For the molecule `CCCCCc1c(C)nc(Nc2ccccc2)[nH]c1=O`, the cell number change is -111%. For the same molecule, the AC50 under setting [2] is 20.6 µM [falling, single point]. In addition, the AC50 under setting [1] was 29.1 µM [falling, single point].

With `O=C(NCc1ccccn1)c1ccc(S(=O)(=O)Nc2ccccc2F)cc1`, the cell number change was -7.08%. Further, the AC50 under setting [1] was 18.4 µM [rising, partial curve].

Take `COc1cccc(NC(=O)COC(=O)c2ccccc2C(=O)N(C)c2ccccc2)c1`: the cell number change was -4.71%. Under setting [1], the AC50 is 0.13 µM [rising, partial curve, poor fit].

Consider `OCCCCNc1cccc2ccccc12`, for which the cell number change amounted to 25%. The half-maximal activity concentration (AC50) under setting [1] is 3.66 µM [rising, single point].

Consider `COc1ccc(-c2nc(C)ncc2N=Nc2ccccc2)cc1`, for which the cell number change was -80.3%. The AC50 under setting [2] was 18.4 µM [falling, single point]. Also, under setting [1], the concentration at half-maximal activity (AC50) is 14.6 µM [falling, partial curve].

As for `O=C(NCCNCCO)c1c(O)c2cccc3c2n(c1=O)CCC3`, the cell number change is -4.45%. The AC50 under setting [1] was 3.26 µM [falling, full curve].

For the molecule `O=C(COC(=O)c1ccccc1O)NC(=O)NCc1ccccc1`, the cell number change is -75%. In addition, the AC50 under setting [2] was 16.4 µM [falling, single point].

On to `C/C=C(\C)CN1CCCC(CO)(Cc2ccccc2)C1` (stereo not drawn), for which the cell number change is -36.9%. Besides, the AC50 under setting [2] is 18.4 µM [falling, partial curve].

Take `CC(C)(C)CN1CCNC[C@H]1Cc1ccc(O)cc1`: the cell number change was -30.2%. In addition, the AC50 under setting [2] is 29.1 µM [falling, single point]. Besides, under setting [1], the AC50 is 29.1 µM [falling, single point].

On to `O=S(Cc1ccc(Cl)cc1)CC(O)(c1ccccc1)c1ccccc1` (stereo not drawn), for which the cell number change is -31.3%. The AC50 under setting [2] is 14.6 µM [falling, single point]. Under setting [1], the AC50 is 20.6 µM [falling, single point].

Consider `COc1ccc(S(=O)(=O)N2CCC(C(=O)Nc3nccs3)CC2)cc1`, for which the cell number change came to 53.5%. Besides, the AC50 under setting [2] is 29.1 µM [rising, single point]. In addition, under setting [1], the AC50 is 29.1 µM [rising, single point].

As for `O=C(CSc1ncn(-c2ccccc2)n1)Nc1nc(-c2ccccc2)cs1`, the cell number change is -17.6%. Moreover, the AC50 under setting [1] was 20.6 µM [falling, single point].

`Cn1c2c(c(=O)[nH]c1=O)C(c1ccc(O)cc1)C1=C(N2)c2ccccc2C1=O` (stereo not drawn): the cell number change was -32.2%. Moreover, the half-maximal activity concentration (AC50) under setting [2] is 0.146 µM [falling, full curve, poor fit]. Also, under setting [1], the AC50 is 4.61 µM [falling, partial curve, poor fit].

As for `COc1ccc(OCC(=O)Nc2ccc(N3CCN(C(=O)c4ccccc4)CC3)c(Cl)c2)cc1`, the cell number change is -50%. The AC50 under setting [2] is 29.1 µM [falling, single point].

For `CCC(C)NCCC(=O)Nc1ccc(Cl)c(S(=O)(=O)Nc2ccc(Cl)cc2)c1` (stereo not drawn), the cell number change turned out to be 46.5%. Also, the AC50 under setting [2] is 16.4 µM [rising, single point]. The AC50 under setting [1] was 18.4 µM [rising, single point].

Turning to `NS(=O)(=O)c1cccc(NS(=O)(=O)c2ccc(/C=C/C(=O)O)cc2)c1`, the cell number change was -12.2%. Further, the concentration at half-maximal activity (AC50) under setting [2] is 6.51 µM [falling, single point]. Moreover, under setting [1], the AC50 is 6.51 µM [falling, single point].

`Cn1cc(C(=O)NCc2ccc(F)cc2)c(=O)c2cc(S(=O)(=O)N3CCCCC3)ccc21`: the AC50 is 0.146 µM [rising, full curve, poor fit] under setting [2] and 0.13 µM [rising, full curve, poor fit] under setting [1].

On to `CCN1N=C(c2cc(Cl)sc2Cl)CSC1=O`, for which the cell number change is -32.4%. Further, the AC50 under setting [2] is 10.3 µM [falling, partial curve]. For the same molecule, the AC50 under setting [1] was 13 µM [falling, partial curve].

For `Cc1cccc(OCCCC(=O)Nc2ccc3c(c2)OCO3)c1`, the cell number change was 6.84%. In addition, the AC50 under setting [1] is 14.6 µM [rising, partial curve, poor fit].

On to `Cc1cccc(CN2C(=O)/C(=C\c3ccc(C(=O)NCCCN4CCN(C)CC4)cc3)Oc3ccccc32)c1`, for which the cell number change is -3.36%.

In the case of `COc1ccccc1CNC(=O)C(CCSC)NC(=O)C1CCC(C)CC1` (stereo not drawn), the cell number change is -7.45%. For the same molecule, the AC50 under setting [1] is 29.1 µM [rising, single point].

`Cc1onc(-c2ccccc2)c1C(=O)Nc1cccc2nsnc12`: the AC50 under setting [2] was 0.651 µM [rising, single point] and the AC50 under setting [1] was 0.291 µM [rising, partial curve, poor fit].

Turning to `COc1ccccc1NC(=O)NCCN1CCNC1=O`, the cell number change is -9.29%. Further, the AC50 under setting [1] is 0.00461 µM [falling, full curve, poor fit].

With `O=C(O)c1cccc(S(=O)(=O)Nc2ccccc2Cl)c1`, the cell number change was -29.8%. Moreover, the AC50 under setting [1] was 0.00517 µM [falling, full curve, poor fit].

Take `CCN(CC(=O)Nc1c(F)cccc1F)C(=O)c1cccc(S(=O)(=O)N2CCc3ccccc3C2)c1`: the cell number change worked out at 0.116%.

Consider `CCOc1ccc(-c2nnc(Nc3ccc(OC)c(C(=O)N4CCCCC4)c3)c3ccccc23)cc1`, for which the cell number change was 3.75%. In addition, the AC50 under setting [1] is 0.164 µM [rising, full curve, poor fit].

For `FC(F)(F)c1nnc2ccc(N3CCOCC3)nn12`, the cell number change was 13.5%. Moreover, the AC50 under setting [1] was 0.116 µM [rising, full curve, poor fit].

As for `CC1CC(C)CN(S(=O)(=O)c2ccccc2[N+](=O)[O-])C1` (stereo not drawn), the cell number change is -4.13%. The half-maximal activity concentration (AC50) under setting [2] is 0.0058 µM [falling, full curve]. Further, the AC50 under setting [1] is 4.11 µM [falling, full curve].

For `CC(C)c1ccc(C(=O)N/N=C/c2cccc(Cl)c2Cl)cc1`, the cell number change turned out to be 14.4%.

With `CC(C)(C)OC(=O)N1CCC(NC(=O)c2ncn(Cc3ccccc3)c2C(=O)NC2CCN(C(=O)OC(C)(C)C)CC2)CC1`, the cell number change is -47.8%. The AC50 under setting [2] is 20.6 µM [falling, single point]. Further, the AC50 under setting [1] was 5.17 µM [falling, full curve].

In the case of `COc1ccc(CN2CCN(CC3CC3)CC2CCO)c(C)c1C` (stereo not drawn), the cell number change is -12.2%. Under setting [1], the AC50 is 6.51 µM [rising, single point].

As to `Cc1cc(C)nc(SCC(=O)OCC(=O)Nc2ccccc2)n1`, the cell number change was 1.3%. Moreover, under setting [1], the AC50 is 0.651 µM [falling, partial curve, poor fit].

For `O=C(c1cc([N+](=O)[O-])ccc1Cl)N1CCN(Cc2ccc3c(c2)OCO3)CC1`, the cell number change was found to be 14.2%. Besides, the AC50 under setting [1] is 2.31 µM [rising, partial curve, poor fit].

`CCOC(=O)c1cnn(-c2c(Cc3ccccc3)c(C)nc3c(-c4ccccc4)c(C)nn23)c1N`: the cell number change was found to be 15.7%.

As to `CC1CCC2C(=O)N(c3cccc(C(=O)Nc4ccccc4Cl)c3)C(=O)C2C1` (stereo not drawn), the cell number change is -8.91%. Also, the AC50 under setting [2] is 0.651 µM [rising, single point]. Also, the AC50 under setting [1] was 29.1 µM [falling, single point].

In the case of `CCCc1nn2c(=O)cc(CSCC(=O)Nc3ccc(OC)cc3)nc2s1`, the cell number change was -8.36%.

`COC(=O)C1=C(C)NC(=O)CC1c1cc2c(cc1Br)OCO2` (stereo not drawn): the cell number change is -19.2%.

Regarding `CC(=O)c1c(C)[nH]c(C(=O)NNC(=O)COc2cc(C)cc(C)c2)c1C`, the half-maximal activity concentration (AC50) under setting [2] is 0.103 µM [falling, full curve, poor fit].

With `Cc1cc(C)c2nc(SCC(=O)N3CCCCC3)c(C#N)cc2c1`, the cell number change was -1.12%.

Consider `CCOCCc1nnc(NC(=O)C(CC)c2ccccc2)s1` (stereo not drawn), for which the cell number change came to 22.2%. Moreover, the AC50 under setting [1] is 29.1 µM [rising, single point].

With `COc1ccc(-c2nc(NC(=O)C3CC(=O)N(Cc4ccco4)C3)sc2C)cc1` (stereo not drawn), the cell number change is -8.29%. In addition, under setting [2], the AC50 is 2.91 µM [falling, single point]. Moreover, under setting [1], the AC50 is 6.51 µM [falling, single point].

As to `O=C(COc1ccc2ccccc2c1Br)Nc1cccnc1`, the cell number change is -10.8%. Also, the AC50 under setting [1] is 29.1 µM [falling, single point].
